# Experimental data as given in the supplement of paper PMC11006884.
# Protein sequences, listed by entry. Tags and fused reporters are not part of them. Lines headed by an entry give the natural chain unless they say otherwise; changes in a name come on top.
# UniProt Q9NW13: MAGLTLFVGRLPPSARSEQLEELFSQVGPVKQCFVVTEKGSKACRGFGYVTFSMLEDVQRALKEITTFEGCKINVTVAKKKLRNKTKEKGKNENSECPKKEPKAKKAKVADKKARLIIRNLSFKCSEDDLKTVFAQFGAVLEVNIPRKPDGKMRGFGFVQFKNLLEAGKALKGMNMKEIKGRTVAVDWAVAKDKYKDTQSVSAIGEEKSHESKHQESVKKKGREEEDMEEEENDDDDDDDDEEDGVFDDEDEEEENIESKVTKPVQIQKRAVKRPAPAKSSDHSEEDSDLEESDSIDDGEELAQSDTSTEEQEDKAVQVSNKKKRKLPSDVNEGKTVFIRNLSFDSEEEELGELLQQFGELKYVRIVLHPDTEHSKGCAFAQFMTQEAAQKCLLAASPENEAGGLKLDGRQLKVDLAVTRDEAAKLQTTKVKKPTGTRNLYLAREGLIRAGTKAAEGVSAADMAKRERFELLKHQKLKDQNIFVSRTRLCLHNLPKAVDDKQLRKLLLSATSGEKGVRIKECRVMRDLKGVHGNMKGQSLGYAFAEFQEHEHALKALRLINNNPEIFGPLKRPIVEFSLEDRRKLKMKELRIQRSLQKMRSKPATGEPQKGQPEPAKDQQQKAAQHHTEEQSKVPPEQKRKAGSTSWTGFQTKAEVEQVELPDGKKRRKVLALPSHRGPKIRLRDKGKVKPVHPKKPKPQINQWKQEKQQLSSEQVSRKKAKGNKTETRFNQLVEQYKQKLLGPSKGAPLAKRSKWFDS
# UniProt Q9NZB2: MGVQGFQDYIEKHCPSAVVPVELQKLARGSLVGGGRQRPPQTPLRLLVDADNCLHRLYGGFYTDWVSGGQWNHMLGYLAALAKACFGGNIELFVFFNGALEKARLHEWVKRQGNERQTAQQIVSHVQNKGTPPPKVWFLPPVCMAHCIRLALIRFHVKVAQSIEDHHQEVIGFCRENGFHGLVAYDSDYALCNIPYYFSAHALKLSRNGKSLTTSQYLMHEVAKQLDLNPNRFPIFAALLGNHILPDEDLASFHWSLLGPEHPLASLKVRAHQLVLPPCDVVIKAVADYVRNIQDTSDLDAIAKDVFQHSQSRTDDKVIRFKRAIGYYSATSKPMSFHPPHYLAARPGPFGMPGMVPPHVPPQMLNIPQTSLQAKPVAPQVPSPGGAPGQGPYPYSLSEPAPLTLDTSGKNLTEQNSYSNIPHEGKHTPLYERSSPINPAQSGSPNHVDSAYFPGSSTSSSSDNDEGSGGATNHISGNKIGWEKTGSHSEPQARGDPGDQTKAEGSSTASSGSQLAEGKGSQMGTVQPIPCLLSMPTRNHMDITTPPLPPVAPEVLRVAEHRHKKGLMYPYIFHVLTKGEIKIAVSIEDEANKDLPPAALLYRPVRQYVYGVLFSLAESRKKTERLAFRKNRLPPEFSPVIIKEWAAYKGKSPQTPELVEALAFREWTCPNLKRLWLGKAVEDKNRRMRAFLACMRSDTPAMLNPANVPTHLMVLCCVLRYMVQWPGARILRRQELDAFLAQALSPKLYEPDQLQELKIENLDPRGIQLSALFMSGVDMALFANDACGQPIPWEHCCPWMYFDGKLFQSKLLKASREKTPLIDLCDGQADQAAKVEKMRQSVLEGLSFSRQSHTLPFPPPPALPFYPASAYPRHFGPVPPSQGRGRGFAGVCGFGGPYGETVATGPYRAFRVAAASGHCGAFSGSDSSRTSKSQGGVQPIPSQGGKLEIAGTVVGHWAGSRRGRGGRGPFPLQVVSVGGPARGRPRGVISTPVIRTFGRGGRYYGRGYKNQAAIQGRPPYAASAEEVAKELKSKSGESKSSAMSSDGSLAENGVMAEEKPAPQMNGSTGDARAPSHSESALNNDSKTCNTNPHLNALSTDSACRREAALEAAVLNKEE
# UniProt Q9NUQ8: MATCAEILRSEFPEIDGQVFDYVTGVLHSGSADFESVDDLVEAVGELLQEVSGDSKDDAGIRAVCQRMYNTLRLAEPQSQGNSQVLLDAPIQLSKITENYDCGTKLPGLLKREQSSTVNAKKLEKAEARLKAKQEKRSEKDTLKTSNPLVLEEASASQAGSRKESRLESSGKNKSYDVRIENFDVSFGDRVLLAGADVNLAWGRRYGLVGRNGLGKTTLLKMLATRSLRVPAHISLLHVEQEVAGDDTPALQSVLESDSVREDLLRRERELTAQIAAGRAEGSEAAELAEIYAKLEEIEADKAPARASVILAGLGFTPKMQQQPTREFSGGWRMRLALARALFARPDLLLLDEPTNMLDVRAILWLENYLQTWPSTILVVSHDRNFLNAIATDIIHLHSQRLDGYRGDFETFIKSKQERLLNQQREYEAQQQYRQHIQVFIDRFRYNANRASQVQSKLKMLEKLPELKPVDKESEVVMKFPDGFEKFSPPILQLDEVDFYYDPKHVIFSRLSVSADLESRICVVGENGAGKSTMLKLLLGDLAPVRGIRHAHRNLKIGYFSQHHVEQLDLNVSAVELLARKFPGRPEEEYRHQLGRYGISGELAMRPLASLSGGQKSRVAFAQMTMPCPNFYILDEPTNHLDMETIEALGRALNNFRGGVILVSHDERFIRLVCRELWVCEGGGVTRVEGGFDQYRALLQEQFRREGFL
# UniProt Q9UBB4: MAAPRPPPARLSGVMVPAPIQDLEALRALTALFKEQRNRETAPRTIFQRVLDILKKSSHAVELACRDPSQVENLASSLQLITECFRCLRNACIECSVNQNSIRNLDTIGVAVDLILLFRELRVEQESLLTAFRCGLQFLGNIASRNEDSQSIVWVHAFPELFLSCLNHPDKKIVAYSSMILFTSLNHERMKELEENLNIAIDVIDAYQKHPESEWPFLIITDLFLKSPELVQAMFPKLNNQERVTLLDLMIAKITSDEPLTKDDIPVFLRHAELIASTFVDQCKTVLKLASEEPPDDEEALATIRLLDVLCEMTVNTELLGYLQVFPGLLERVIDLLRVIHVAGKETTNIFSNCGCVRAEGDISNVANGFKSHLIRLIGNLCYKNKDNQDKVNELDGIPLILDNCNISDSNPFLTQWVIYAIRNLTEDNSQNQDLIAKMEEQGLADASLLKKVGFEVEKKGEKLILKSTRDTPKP
# UniProt Q9UGI8: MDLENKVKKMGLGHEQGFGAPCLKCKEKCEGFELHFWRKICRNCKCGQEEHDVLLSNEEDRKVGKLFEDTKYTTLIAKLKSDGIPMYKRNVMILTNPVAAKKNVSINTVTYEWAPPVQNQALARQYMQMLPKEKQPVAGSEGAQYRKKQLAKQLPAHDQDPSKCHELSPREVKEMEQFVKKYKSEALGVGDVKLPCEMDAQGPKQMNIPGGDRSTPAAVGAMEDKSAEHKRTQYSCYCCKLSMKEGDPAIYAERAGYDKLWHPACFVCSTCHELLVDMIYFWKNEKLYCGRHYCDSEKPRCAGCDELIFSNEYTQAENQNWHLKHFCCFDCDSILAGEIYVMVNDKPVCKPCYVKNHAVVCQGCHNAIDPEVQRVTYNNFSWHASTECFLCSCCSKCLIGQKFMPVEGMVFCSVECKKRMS
# UniProt Q9NY93: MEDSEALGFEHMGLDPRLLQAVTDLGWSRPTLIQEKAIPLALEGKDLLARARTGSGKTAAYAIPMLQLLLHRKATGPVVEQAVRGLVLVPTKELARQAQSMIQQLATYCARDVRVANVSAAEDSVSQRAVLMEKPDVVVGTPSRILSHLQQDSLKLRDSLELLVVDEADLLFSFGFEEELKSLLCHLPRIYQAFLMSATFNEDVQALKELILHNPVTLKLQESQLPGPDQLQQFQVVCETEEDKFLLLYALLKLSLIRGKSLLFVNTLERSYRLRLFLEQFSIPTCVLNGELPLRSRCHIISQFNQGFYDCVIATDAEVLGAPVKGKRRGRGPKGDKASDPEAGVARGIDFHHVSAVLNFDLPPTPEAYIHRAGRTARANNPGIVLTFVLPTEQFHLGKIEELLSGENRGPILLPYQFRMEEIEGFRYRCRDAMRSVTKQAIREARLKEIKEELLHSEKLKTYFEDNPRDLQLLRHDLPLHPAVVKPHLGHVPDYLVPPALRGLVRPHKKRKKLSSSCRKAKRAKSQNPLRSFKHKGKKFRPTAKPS
# UniProt Q9UBF2: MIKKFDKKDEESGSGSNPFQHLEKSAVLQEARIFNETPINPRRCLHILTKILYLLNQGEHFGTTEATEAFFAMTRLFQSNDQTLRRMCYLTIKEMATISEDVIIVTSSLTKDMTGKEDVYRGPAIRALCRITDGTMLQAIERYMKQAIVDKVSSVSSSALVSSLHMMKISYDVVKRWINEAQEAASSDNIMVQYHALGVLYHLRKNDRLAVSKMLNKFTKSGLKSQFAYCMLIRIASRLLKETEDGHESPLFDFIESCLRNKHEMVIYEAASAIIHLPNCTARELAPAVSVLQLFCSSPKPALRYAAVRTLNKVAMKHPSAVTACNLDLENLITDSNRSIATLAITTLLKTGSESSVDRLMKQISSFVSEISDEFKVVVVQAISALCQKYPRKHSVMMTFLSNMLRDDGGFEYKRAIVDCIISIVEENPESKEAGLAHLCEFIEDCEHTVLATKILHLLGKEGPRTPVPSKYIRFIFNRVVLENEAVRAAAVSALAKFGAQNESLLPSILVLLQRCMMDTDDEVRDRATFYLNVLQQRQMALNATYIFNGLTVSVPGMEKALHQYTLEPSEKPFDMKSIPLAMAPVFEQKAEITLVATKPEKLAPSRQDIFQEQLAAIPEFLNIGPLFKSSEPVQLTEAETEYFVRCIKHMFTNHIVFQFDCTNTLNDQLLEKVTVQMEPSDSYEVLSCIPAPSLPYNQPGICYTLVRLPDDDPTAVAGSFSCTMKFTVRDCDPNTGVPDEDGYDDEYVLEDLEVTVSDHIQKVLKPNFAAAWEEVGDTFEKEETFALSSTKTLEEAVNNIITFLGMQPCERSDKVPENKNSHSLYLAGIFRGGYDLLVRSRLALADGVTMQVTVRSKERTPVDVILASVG
# UniProt Q9P2J5: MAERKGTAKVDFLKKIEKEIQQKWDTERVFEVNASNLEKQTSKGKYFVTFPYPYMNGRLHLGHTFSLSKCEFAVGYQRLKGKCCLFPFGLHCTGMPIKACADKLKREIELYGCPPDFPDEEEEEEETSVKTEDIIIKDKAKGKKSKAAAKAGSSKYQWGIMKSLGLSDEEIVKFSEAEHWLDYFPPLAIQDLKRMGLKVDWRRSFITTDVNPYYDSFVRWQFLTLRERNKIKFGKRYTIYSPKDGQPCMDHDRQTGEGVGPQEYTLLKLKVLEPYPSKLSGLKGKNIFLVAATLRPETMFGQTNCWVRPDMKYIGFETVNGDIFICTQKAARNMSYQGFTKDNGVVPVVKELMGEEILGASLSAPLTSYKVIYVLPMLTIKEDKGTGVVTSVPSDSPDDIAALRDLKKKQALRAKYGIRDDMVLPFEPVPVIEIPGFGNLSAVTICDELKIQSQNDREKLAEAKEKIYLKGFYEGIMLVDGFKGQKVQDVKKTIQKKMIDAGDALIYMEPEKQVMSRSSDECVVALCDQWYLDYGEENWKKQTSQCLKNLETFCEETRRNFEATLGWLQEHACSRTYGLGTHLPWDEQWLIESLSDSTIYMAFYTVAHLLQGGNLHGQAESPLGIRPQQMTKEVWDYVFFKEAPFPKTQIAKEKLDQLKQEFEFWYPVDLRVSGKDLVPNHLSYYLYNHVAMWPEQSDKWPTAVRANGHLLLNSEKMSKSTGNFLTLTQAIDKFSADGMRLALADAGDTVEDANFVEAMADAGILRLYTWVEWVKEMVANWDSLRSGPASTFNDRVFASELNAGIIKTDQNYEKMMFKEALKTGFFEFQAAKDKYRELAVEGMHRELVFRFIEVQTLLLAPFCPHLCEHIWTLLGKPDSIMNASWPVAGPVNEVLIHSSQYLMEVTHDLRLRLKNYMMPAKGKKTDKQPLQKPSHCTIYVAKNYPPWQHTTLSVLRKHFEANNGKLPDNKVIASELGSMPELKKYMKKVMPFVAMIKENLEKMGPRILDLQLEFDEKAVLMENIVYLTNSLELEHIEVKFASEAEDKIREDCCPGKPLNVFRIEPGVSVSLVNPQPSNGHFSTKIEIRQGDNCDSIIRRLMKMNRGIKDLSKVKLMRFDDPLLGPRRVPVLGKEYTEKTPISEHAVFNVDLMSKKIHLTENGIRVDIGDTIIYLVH
# UniProt Q9P287, whole entry: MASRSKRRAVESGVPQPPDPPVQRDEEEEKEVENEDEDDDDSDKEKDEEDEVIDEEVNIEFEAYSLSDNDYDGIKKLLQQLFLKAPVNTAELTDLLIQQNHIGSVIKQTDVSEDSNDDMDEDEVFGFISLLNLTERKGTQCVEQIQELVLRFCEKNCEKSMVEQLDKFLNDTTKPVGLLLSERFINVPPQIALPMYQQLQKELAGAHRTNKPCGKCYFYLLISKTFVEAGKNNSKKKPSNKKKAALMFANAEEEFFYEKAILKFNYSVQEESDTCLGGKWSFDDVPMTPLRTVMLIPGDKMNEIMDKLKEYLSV
# UniProt Q9NX24: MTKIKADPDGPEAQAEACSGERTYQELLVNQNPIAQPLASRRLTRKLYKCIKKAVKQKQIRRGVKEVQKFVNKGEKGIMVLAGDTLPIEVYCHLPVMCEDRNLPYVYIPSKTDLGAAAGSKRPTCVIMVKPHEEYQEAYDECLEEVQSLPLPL
# Only a part is listed here, and it is no random draw.
# Compound: COC(=O)C#Cc1ccccc1 [methyl 3-phenylpropiolate]
# Assay: log2 ratio of iodoacetamide-alkyne labeling of the cysteine site, DMSO over compound (competition); higher = stronger covalent engagement of the cysteine by the compound, active = 1 or more
# Settings: 500 µM; treatment time 1 h; system: HEK293T cell lysate
# In short: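 Electrophile (500 µM) or vehicle was added to HEK293T lysate (2 mg/mL) for 1 h at ambient temperature before iodoacetamide alkyne labelling (1 h) and click coupling to sCIP-TMT reagents. After pooling, overnight trypsin digestion at 37 °C, streptavidin enrichment and acid elution, peptides were measured by Orbitrap Eclipse LC-MS/MS with FAIMS and quantified in FragPipe. Each cysteine's log2 competition ratio compares mean control-channel with mean compound-channel reporter intensity, control over compound. Data came from duplicate channels across three replicates, excluding cysteines quantified in only one replicate.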
row,Target,log2 ratio of iodoacetamide-alkyne labeling
1,RBM28 C71 (UniProt Q9NW13),inactive: 0.107
2,FAM120A C531 (UniProt Q9NZB2),active: 1.68
3,ABCF3 C102 (UniProt Q9NUQ8),inactive: 0.445
4,ASF1B C172 (UniProt Q9NVP2),active: 1.22
5,ATXN10 C405 (UniProt Q9UBB4),inactive: 0.25
6,MTPAP C419 (UniProt Q9NVV4),inactive: 0.508
7,TES C238 (UniProt Q9UGI8),inactive: 0.00153
8,FAM49B C10 (UniProt Q9NUQ9),inactive: -0.0928
9,OCIAD1 C38 (UniProt Q9NX40),inactive: 0.165
10,DAXX C720 (UniProt Q9UER7),active: 1.35
11,ATXN10 C165 (UniProt Q9UBB4),inactive: 0.194
12,DDX56 C298 (UniProt Q9NY93),inactive: 0.522
13,FAM120A C919 (UniProt Q9NZB2),inactive: 0.985
14,COPG2 C296 (UniProt Q9UBF2),inactive: 0.0508
15,SRP68 C525 (UniProt Q9UHB9),inactive: 0.497
16,ASH2L C362 (UniProt Q9UBL3),inactive: 0.138
17,ZMYM2 C1331 (UniProt Q9UBW7),inactive: 0.196
18,RIC8B C373 (UniProt Q9NVN3),inactive: 0.285
19,UniProt Q9P032_C87,inactive: 0.341

row,Target,log2 ratio of iodoacetamide-alkyne labeling
1,LARS C100 (UniProt Q9P2J5),inactive: 0.34
2,KCTD5 C28 (UniProt Q9NXV2),inactive: 0.129
3,STK39 C237 (UniProt Q9UEW8),inactive: 0.227
4,SDAD1 C87 (UniProt Q9NVU7),inactive: 0.16
5,RRBP1 C1216 (UniProt Q9P2E9),inactive: 0.633
6,BCCIP C141 (UniProt Q9P287),inactive: -0.0782
7,NCDN C3 (UniProt Q9UBB6),active: 1.66
8,NHP2 C18 (UniProt Q9NX24),inactive: 0.438
9,UTP6 C309 (UniProt Q9NYH9),inactive: 0.0486
10,ABCF3 C628 (UniProt Q9NUQ8),inactive: -0.243
11,LIMD1 C148 (UniProt Q9UGP4),inactive: 0.445
12,IMP3 C107 (UniProt Q9NV31),inactive: 0.679
13,SACS C3756 (UniProt Q9NZJ4),inactive: 0.593
14,BCLAF1 C688 (UniProt Q9NYF8),inactive: 0.524
15,RCC2 C428 (UniProt Q9P258),inactive: 0.696
16,COPG2 C325 (UniProt Q9UBF2),inactive: 0.149
17,TES C361 (UniProt Q9UGI8),inactive: 0.125
18,MRPL22 C70 (UniProt Q9NWU5),inactive: -0.289

# Individual results from the list:
# For log2 ratio of iodoacetamide-alkyne labeling, ATXN10 C165 (UniProt Q9UBB4) shows inactive: 0.194
# For log2 ratio of iodoacetamide-alkyne labeling, TES C361 (UniProt Q9UGI8) shows inactive: 0.125
